Results deposited as PubChem BioAssay AID1259254 (NCATS, 2017).
Assay: 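Finding genes that stop cells copying their DNA twice in one cycle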 (primary screen). System: human HCT116 colorectal cancer cells. Reagent: single siRNA against human genes. Timing: 3 days. Read-out: 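Nuclei stained with Hoechst and imaged; cell-cycle phase assigned by DNA content; G2 share scaled per plate, non-targeting siRNA 0%, GMNN siRNA 100%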. Reading the numbers: G2 robust z-score and G2 cells, % of GMNN control: higher = more G2 cells, more excess DNA replication; raw share of cells in G2: higher = larger share of cells with G2 DNA content. Rule for the call: 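An siRNA counts as active if its G2 robust z-score lies at least 5 MADs above the screen median; here such calls match roughly 38% of GMNN control or more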.
Shown is one part, drawn at random, of about 59,000 reagents tested. Of all reagents, about 1,550 (2.6%) are marked active. 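G2 share is only a proxy for re-replication; each gene was hit by three separate siRNAs, and active genes were retested.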 Raw values vary from plate to plate and are shown uncorrected. The numbers tell different reagents against one gene apart. Not stated in the record: the amount of reagent.

| gene | reagent no. | G2 robust z-score | G2 cells, % of GMNN control | raw share of cells in G2 (%) | call |
| --- | --- | --- | --- | --- | --- |
| SHC3 | 1 | -0.58 | -1.11 | 3.2 | inactive |
| SHC3 | 2 | -0.752 | -2.32 | 3.29 | inactive |
| SHC3 | 3 | -0.187 | 1.65 | 3.74 | inactive |
| ANKRD28 | 1 | 3.52 | 27.7 | 15.8 | inactive |
| ANKRD28 | 2 | -0.796 | -2.63 | 3.05 | inactive |
| ANKRD28 | 3 | -0.221 | 1.41 | 3.7 | inactive |
| OR7C1 | 1 | 1.45 | 13.2 | 9.37 | inactive |
| OR7C1 | 2 | 3.71 | 29.1 | 16.5 | inactive |
| OR7C1 | 3 | -0.313 | 0.767 | 3.57 | inactive |
| C10orf90 | 1 | 0.748 | 8.23 | 7.39 | inactive |
| C10orf90 | 2 | 0.465 | 6.24 | 5.19 | inactive |
| C10orf90 | 3 | -0.771 | -2.45 | 1.1 | inactive |
| BHLHE40 | 1 | 1.96 | 16.8 | 10.7 | inactive |
| BHLHE40 | 2 | 3.56 | 28 | 15.1 | inactive |
| BHLHE40 | 3 | -0.107 | 2.21 | 5.54 | inactive |
| TSPO | 1 | -0.0647 | 2.51 | 4.93 | inactive |
| TSPO | 2 | -0.972 | -3.87 | 3.4 | inactive |
| TSPO | 3 | -0.115 | 2.16 | 5.84 | inactive |
| TP73 | 1 | -0.398 | 0.164 | 3.53 | inactive |
| TP73 | 2 | 1.73 | 15.1 | 11.9 | inactive |
| TP73 | 3 | 2.44 | 20.1 | 10.4 | inactive |
| TMTC3 | 1 | 0.546 | 6.81 | 7.56 | inactive |
| TMTC3 | 2 | -1 | -4.08 | 3.21 | inactive |
| TMTC3 | 3 | -0.713 | -2.05 | 4.98 | inactive |
| PPP1R14D | 1 | 0.16 | 4.09 | 4.73 | inactive |
| PPP1R14D | 2 | 5.43 | 41.2 | 18.2 | active |
| PPP1R14D | 3 | 1.93 | 16.5 | 9.29 | inactive |
| ZFP57 | 1 | 2.04 | 17.3 | 9.06 | inactive |
| ZFP57 | 2 | -0.842 | -2.96 | 2.14 | inactive |
| ZFP57 | 3 | -1.37 | -6.68 | 1.18 | inactive |
| STAC | 1 | 1.67 | 14.7 | 11.7 | inactive |
| STAC | 2 | 0.202 | 4.39 | 5.64 | inactive |
| STAC | 3 | -0.1 | 2.26 | 4.15 | inactive |
| MKRN2 | 1 | -1.53 | -7.78 | 2.63 | inactive |
| MKRN2 | 2 | -0.739 | -2.23 | 3.45 | inactive |
| MKRN2 | 3 | 0.00144 | 2.98 | 4.96 | inactive |
| SRBD1 | 1 | 8.93 | 65.8 | 35.3 | active |
| SRBD1 | 2 | 4.08 | 31.7 | 15.8 | inactive |
| SRBD1 | 3 | 1.83 | 15.8 | 10.9 | inactive |
| ADM | 1 | -1.32 | -6.34 | 2.56 | inactive |
| ADM | 2 | -1.36 | -6.58 | 2.73 | inactive |
| ADM | 3 | -0.92 | -3.5 | 2.69 | inactive |
| LRRC8D | 1 | -0.503 | -0.572 | 4.3 | inactive |
| LRRC8D | 2 | 4.51 | 34.7 | 18.5 | inactive |
| LRRC8D | 3 | -0.639 | -1.53 | 2.65 | inactive |
| SLC9C1 | 1 | -0.239 | 1.29 | 5.22 | inactive |
| SLC9C1 | 2 | -0.311 | 0.783 | 5.57 | inactive |
| SLC9C1 | 3 | -1.21 | -5.58 | 2.2 | inactive |
| SPG21 | 1 | -1.21 | -5.56 | 1.61 | inactive |
| SPG21 | 2 | 1.03 | 10.2 | 8.57 | inactive |
| SPG21 | 3 | -0.0828 | 2.39 | 3.98 | inactive |
| NLRP10 | 1 | -0.908 | -3.42 | 2.81 | inactive |
| NLRP10 | 2 | 3.75 | 29.4 | 16.1 | inactive |
| NLRP10 | 3 | 0.28 | 4.94 | 6.18 | inactive |
| TYW1 | 1 | 1.94 | 16.6 | 11.3 | inactive |
| TYW1 | 2 | 1.21 | 11.4 | 11.4 | inactive |
| TYW1 | 3 | -0.701 | -1.97 | 3.73 | inactive |
| OVGP1 | 1 | 0.736 | 8.14 | 5.98 | inactive |
| OVGP1 | 2 | 5.07 | 38.6 | 19.8 | active |
| OVGP1 | 3 | 1.09 | 10.6 | 9.06 | inactive |
| MTA3 | 1 | -0.122 | 2.11 | 3.93 | inactive |
| MTA3 | 2 | -0.446 | -0.167 | 5.58 | inactive |
| MTA3 | 3 | -0.322 | 0.703 | 4.6 | inactive |
| MTA3 | 4 | -0.907 | -3.41 | 2.99 | inactive |
| MTA3 | 5 | 2.65 | 21.6 | 12.2 | inactive |
| MTA3 | 6 | -0.638 | -1.52 | 2.83 | inactive |
| SNRNP35 | 1 | 0.248 | 4.71 | 8.26 | inactive |
| SNRNP35 | 2 | -0.221 | 1.41 | 4.63 | inactive |
| SNRNP35 | 3 | -1.13 | -4.98 | 2.16 | inactive |

Targets above whose gene name starts with Z or z:
| gene | reagent no. | G2 robust z-score | G2 cells, % of GMNN control | raw share of cells in G2 (%) | call |
| --- | --- | --- | --- | --- | --- |
| ZFP57 | 1 | 2.04 | 17.3 | 9.06 | inactive |
| ZFP57 | 2 | -0.842 | -2.96 | 2.14 | inactive |
| ZFP57 | 3 | -1.37 | -6.68 | 1.18 | inactive |
